For some assays here: At least one result comes from cells or an extract, where the contact may be indirect. For some assays here: Where a protein sequence is shown, tags need not be part of it. For some assays here: The exact form of at least one protein or probe is not confirmed. For some assays here: A negative result means that nothing was seen under these conditions.

Experimental findings from patent US5972643 are described below.

Holding throughout (assay): EMSA
(In EMSA bound probe runs differently from free probe, usually more slowly.)

The target in data set [1] is CTCF Zn-finger domain lacking C-terminal fingers 8-11 deletion of Zn fingers 8-11 (UniProt Q08705). Conditions: fingers 8-11 absolutely required for P2 site; protein translated in vitro; label: 32P.
Data set [2] concerns the target CTCF Zn-finger domain lacking N-terminal fingers 1 and 2 deletion of Zn fingers 1-2 (UniProt Q08705). Conditions: fingers 1 and 2 dispensable for P2 site; protein translated in vitro; label: 32P.
Data set [3] has as its target T1, CTCF in HD3 nuclear extract (Gallus gallus) (UniProt Q08705).
T1 sequence (limits assumed): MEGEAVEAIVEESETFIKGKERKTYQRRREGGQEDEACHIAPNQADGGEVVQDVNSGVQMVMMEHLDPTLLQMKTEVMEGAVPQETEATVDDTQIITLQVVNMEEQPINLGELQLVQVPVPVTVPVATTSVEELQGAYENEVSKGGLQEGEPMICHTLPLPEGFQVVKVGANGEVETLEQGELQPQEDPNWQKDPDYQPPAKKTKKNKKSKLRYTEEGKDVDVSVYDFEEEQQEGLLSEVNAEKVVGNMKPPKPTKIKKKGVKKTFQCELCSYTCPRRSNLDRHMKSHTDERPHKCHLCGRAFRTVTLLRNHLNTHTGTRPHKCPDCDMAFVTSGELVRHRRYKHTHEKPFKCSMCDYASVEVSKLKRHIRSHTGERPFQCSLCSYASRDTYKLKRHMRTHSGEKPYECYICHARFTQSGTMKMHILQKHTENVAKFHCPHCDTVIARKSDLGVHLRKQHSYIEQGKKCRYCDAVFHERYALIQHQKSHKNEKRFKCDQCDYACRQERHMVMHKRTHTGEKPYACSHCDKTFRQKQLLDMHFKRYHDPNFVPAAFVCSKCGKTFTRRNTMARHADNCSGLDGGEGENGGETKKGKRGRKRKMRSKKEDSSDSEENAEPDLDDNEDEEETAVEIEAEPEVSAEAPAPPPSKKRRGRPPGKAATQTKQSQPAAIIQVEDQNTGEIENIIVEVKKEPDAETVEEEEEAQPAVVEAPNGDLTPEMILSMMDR
Conditions: agarose gel EMSA; protein in an extract; label: 32P; only the site is given.

The subject of data set [4] is Sp1-like factors in HD3 nuclear extract (Gallus gallus). The note with it: protein in an extract; label: 32P; only the site is given.
For data set [5], the system named is poly(dG)-binding protein in HD3 nuclear extract (Gallus gallus). The note with it: protein in an extract; label: 32P; only the site is given.

As to “AAGAACGGAGGGAGGGATCGCGCTGAGTATAAAAGCCGGTTTTCGGGGCTTTATCTAACTCGCTGTAGTAATTCCAGCGAGAGGCAGAGGGAGCGAGCGGGCGGCCGGCTAGGGTGGAAGAGCCGGGCGAGCAGAGCTGCGCTGCGGGCGTCCTGGGAAGGGAGATCCGGAGCGAAT (double strand) [human c-myc fragment A]”, the binding result in data set [1] was “no binding”; in data set [2], “binds”.
On to “TACTCGGGGGGGGGCACGGAGCCCCTCGGCCGCCCCCTCGCGGCGCGCCCTCCCCGCTCA (double strand) [152 bp HindIII-ApaI chicken c-myc fragment wild type]”, for which the binding result in data set [3], in data set [4] and in data set [5] was “binds” throughout.
